# Publication PMC12040169 (PLOS Biology, 2025)
# The other results are listed elsewhere or left out.
# Test system: T1, CTL2-GFP (C. trachomatis L2/434/Bu, GFP-expressing)
# T1 construct: L2/434/Bu, GFP-expressing
# Parameters: species or system HeLa; Intracellular C. trachomatis growth in HeLa cells, bulk GFP fluorescence relative to DMSO
# Details: bulk GFP, single well; 28.5 h, 10 µM; inhibitor
row,SMILES,% of control remaining [%]
1,CN(CC(=O)Nc1sc2c(c1C#N)CCCCC2)Cc1cnn(C)c1 [CBK304621],158.331
2,O=c1n(-c2ccc(Cl)c(Cl)c2)ccn1S(=O)(=O)CCc1cccc2ccccc12 [CBK106668],162.536
3,COc1ccc(C(C)N(CCN2CCOCC2)C(=O)NCc2cccc3ccccc23)cc1OC (centres unmarked) [CBK158984],46.9416
4,COc1ccc(C2CC(c3ccccc3)=NN2c2ccc(S(N)(=O)=O)cc2)cc1OC (centres unmarked) [CBK268193],101.214
5,CC(OC(=O)N1CCN(c2ccccc2)CC1)c1ccccc1 (centres unmarked) [CBK200243],114.851
6,NC1=C2NC(c3cccc(C(=O)O)c3)=NN2N(c2ccccc2)N1 [CBK093663],125.753
7,COc1ccc(OC)c(CN2CCCN(C)CC2)c1 [CBK261554],100
8,CC(Oc1ccc2c(c1)OCO2)C(=O)NNC(=O)Nc1cccc(Cl)c1Cl (centres unmarked) [CBK266852],175.108
9,COc1cncc(-c2cc(NC3CCCCC3)ncn2)c1 [CBK090903],225.879
10,CN(C(=O)c1c[nH]nc1C1CCCN(Cc2ccnc3ccccc23)C1)C1CCCCC1 (centres unmarked) [CBK286491],134.138
11,CC(NC(=O)C(C)(C)C)c1nc(-c2ccncc2)n[nH]1 (centres unmarked) [CBK104074],106.178
12,O=C(CC1CC1)NC(c1ccccc1)c1ccccn1 (centres unmarked) [CBK144108],78.4325
13,Cc1cc(NC(=O)c2ccccc2O)n(C)n1 [CBK000190],92.7801
14,CCn1c(COc2ccccc2Cl)nnc1SCC(=O)N1c2ccccc2Sc2ccccc21 [CBK265957],90.3621
15,N/C(=N/O)c1ccc(-n2cncn2)nc1 [CBK020936],130.735
16,COc1cccc(OC)c1OCCN1CCC(C(=O)NC(c2ccccc2)c2ccccn2)CC1 (centres unmarked) [CBK148419],124.598
17,Cc1noc(C)c1C(=O)NC1(c2ccc(F)cc2)CCCC1 [CBK284013],122.411
18,Cc1cc(NC(=O)CN2CC(C)CC(C)C2)nc2c1c(=O)oc1ccccc12 (centres unmarked) [CBK287620],146.473
19,O=C(Nc1nnc(-c2ccco2)o1)c1ccc(N2C(=O)CCC2=O)cc1 [CBK287423],157.809

row,SMILES,% of control remaining [%]
1,O=C(NCc1nnc(-c2cccs2)o1)C1(c2cccc(F)c2)CC1 [CBK284639],153.168
2,COCC(=O)N1CCc2cc(-c3cn4ccccc4n3)ccc21 [CBK285274],147.35
3,O=c1[nH]c2ncc(-c3cncc4ccccc34)nc2n1C1CCC(O)CC1 (centres unmarked) [CBK065013],144.145
4,Cc1ccc(S(=O)(=O)N(C)CC(=O)OCC(=O)c2ccccc2)cc1 [CBK264329],131.074
5,CCc1nc(C)c(C(C)N(C)CC(=O)NCc2ccco2)s1 (centres unmarked) [CBK305203],132.072
6,N#CCCn1cc(C(=O)Oc2ccc(-c3ccccc3)cc2)c(-c2cccc([N+](=O)[O-])c2)n1 [CBK267968],87.5523
7,c1csc(-c2cc3cccnc3n2CCN2CCOCC2)c1 [CBK282718],128.824
8,CN(Cc1ccccc1)C(=O)c1c[nH]nc1C1CCCN(Cc2cccc(Cl)c2)C1 (centres unmarked) [CBK286490],150.435
9,CCN(C(=O)CCc1nc2ccccc2n1C)C1CCN(C)CC1 [CBK281994],129.842
10,CS(=O)(=O)Nc1cc2cccnc2c(-c2ccc3c(c2)CCO3)n1 [CBK085705],128.621
11,O=C1N=C(NCC2CCCCC2)OC1Cc1ccccc1 (centres unmarked) [CBK067023],111.109
12,O=C1c2cccc3cccc(c23)C(=O)N1CC1CCN(CC(O)COCc2ccccc2)CC1 (centres unmarked) [CBK074407C],76.4476
13,Cn1c(=O)[nH]c(=O)c2c1nc(N1CCOCC1)n2CCCSc1nc2ccccc2s1 [CBK269368],120.537
14,Cc1ccc(-c2nn(-c3ccccc3)cc2C2CC(c3cccs3)=NN2C(=O)CCC(=O)O)cc1 (centres unmarked) [CBK296126],123.895
15,OC(COCc1ccc2c(c1)OCO2)CN1CCN(C(c2ccccc2)c2ccccc2)CC1 (centres unmarked) [CBK074850C],104.525
16,OCc1cccc(-c2nccnc2NCc2ccc(OC(F)(F)F)cc2)c1 [CBK037476],151.179
17,Cc1nn(CC(=O)NC(C)C)c(=O)c2cc3ccsc3n12 [CBK284027],153.384
18,C/C(C(=O)O)=C(/C)C(=O)N1CCC2(C1)NCCc1c2[nH]c2ccccc12 (centres unmarked) [CBK046995],104.605
19,Cn1c(-c2c(CCC(=O)O)oc3cc(O)ccc3c2=O)nc2ccccc21 [CBK264831],134.929

# 3 entries from above, as tab-separated lines:
row	SMILES	% of control remaining [%]
3	O=c1[nH]c2ncc(-c3cncc4ccccc34)nc2n1C1CCC(O)CC1 (centres unmarked) [CBK065013]	144.145
5	CCc1nc(C)c(C(C)N(C)CC(=O)NCc2ccco2)s1 (centres unmarked) [CBK305203]	132.072
14	Cc1ccc(-c2nn(-c3ccccc3)cc2C2CC(c3cccs3)=NN2C(=O)CCC(=O)O)cc1 (centres unmarked) [CBK296126]	123.895
